Data taken from publication PMC8080724.
These are yes or no findings as the source states them, for the method shown. In cells and extracts the contact can be indirect. Some entries that bind do so weakly or less than the wild type. Sequences can lack the tags named with a protein.

The chains behind the UniProt entries cited, without tags or fusion partners.
UniProt P49841: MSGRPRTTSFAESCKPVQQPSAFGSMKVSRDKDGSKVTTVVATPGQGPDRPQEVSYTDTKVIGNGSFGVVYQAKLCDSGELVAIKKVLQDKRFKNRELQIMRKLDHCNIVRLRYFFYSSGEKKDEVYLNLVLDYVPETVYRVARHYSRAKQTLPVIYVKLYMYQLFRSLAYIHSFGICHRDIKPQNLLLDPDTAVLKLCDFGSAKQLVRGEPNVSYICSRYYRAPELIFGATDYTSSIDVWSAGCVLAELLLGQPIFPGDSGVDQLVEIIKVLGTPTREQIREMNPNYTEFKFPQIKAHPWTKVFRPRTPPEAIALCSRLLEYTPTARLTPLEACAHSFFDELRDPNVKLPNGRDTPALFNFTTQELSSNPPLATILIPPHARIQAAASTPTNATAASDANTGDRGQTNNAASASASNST
UniProt P18266: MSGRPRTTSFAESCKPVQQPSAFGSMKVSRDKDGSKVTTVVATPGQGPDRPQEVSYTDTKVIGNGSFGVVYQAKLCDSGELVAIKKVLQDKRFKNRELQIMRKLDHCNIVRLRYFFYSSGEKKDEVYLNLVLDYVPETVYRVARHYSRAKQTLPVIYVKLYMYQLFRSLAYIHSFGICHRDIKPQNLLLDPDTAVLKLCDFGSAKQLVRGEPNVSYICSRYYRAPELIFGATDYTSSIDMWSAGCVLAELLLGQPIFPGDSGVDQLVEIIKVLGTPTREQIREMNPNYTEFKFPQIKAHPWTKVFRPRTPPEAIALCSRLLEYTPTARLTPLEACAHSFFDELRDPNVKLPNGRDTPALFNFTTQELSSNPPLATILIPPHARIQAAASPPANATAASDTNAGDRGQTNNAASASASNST

Key:
[1] = target: T1, HA-ULK1 F2 (GABARAP-binding region within the Serine/Proline-Rich Domain, 279–430) (mouse) (UniProt O70405); test: co-IP; HA-ULK1 truncation mutants expressed in HEK293 cells, precipitated with anti-HA antibody, blot for endogenous GSK3B
T1 sequence: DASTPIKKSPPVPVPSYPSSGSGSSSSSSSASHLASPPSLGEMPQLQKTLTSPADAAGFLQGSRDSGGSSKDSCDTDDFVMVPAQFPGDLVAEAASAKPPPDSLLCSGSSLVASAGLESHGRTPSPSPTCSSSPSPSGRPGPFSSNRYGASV

[2] = target: T2, HA-tagged full-length ULK1 WT (mouse) (UniProt O70405); test: proximity ligation; fixed HCN cells transfected with HA-ULK1, primary antibodies against HA-tag and GSK3B, after insulin withdrawal; PLA dots per cell counted
T2 sequence: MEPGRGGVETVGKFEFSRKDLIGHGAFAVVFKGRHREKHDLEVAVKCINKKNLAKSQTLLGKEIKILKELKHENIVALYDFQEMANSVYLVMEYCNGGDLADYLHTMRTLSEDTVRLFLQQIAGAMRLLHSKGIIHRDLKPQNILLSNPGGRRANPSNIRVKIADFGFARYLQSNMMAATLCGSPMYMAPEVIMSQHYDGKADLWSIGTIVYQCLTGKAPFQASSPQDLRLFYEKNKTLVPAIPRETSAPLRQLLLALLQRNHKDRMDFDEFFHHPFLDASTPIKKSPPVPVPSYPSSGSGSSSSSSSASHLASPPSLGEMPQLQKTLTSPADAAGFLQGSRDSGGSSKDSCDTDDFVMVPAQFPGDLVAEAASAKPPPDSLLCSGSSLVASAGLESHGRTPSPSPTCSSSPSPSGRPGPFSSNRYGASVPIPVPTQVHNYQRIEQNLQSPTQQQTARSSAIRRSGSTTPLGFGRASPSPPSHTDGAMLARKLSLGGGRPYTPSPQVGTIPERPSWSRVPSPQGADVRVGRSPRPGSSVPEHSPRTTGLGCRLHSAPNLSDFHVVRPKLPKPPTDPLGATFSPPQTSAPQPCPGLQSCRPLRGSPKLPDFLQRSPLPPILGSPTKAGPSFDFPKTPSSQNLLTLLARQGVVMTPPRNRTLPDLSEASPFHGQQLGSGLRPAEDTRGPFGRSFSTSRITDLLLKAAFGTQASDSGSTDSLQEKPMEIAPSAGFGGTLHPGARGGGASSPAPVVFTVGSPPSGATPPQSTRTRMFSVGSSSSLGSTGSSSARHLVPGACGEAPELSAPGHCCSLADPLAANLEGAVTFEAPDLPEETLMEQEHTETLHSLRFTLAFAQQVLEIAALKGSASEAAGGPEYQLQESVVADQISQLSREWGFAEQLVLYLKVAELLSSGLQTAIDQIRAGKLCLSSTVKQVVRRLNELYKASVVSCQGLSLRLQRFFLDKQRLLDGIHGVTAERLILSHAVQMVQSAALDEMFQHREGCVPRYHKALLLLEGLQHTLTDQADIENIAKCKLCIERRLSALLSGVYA

binding [1]	binding [2]	Substance
binds		glycogen synthase kinase 3 beta (GSK3B), endogenous in HEK293 cells (from UniProt P49841 1-420) (enzyme)
	binds	glycogen synthase kinase 3 beta (GSK3B), endogenous in rat HCN cells (from UniProt P18266 1-420) (enzyme)
